PubChem BioAssay AID1347423 (Functional Genomics Laboratory (NCATS/FGL), 2020)
Among all 52,000 sequences or so, about 210 (0.4%) were called active.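 How the source made its calls: active means gene whose silencing raises cell survival under the drug, median off-target-corrected z-score across its silencing RNAs 2 or more; inactive means the rest.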 Some of the results follow.

Assay: Resistance to Poly (ADP-Ribose) Polymerase inhibitor: Gene Identification via Genome-wide siRNA Screen
Details: mouse BRCA2 R2336H ES cells, olaparib, CellTiter-Glo viability; hits give high values
Procedure, shortened: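 Mouse BRCA2 R2336H ES cells were reverse-transfected with siRNA (20 nM final), treated at 48 h with 500 nM olaparib, and read by CellTiter-Glo after 72 h. Scores: MAD-based z per siRNA, median per gene, seed off-target correction.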

| Sequence | z-score |
| --- | --- |
| CCAAUUUAUGCCUGAAACUTT against Rhof | inactive: -1.28 |
| GGCGAGCCAUGUUUGAUGATT against Hs1bp3 | inactive: 0.449 |
| CCAUGCUGAUUGCUCCGACTT against F730031O20Rik | inactive: -0.513 |
| GGAGUCAUUGACGGAGGAUTT against Dapk3 | inactive: 1.04 |
| GCUACCUUUUAGUGUCCAUTT against Olfr1462 | inactive: -0.33 |
| CCAUGGACAUCGAUCACAUTT against Sec14l3 | inactive: -0.0645 |
| GGUCCUGAAAAAAGUGAUUTT against 3110010F15Rik | inactive: 0.47 |
| GAGGGAGAUGUCGUCCAAGTT against Gng13 | inactive: -0.831 |
| GGGACCAGAACCACAAACATT against Ghsr | inactive: 1.55 |
| GGUGCCUAAUGGAUAAGAATT against Thrap2 | inactive: 0.923 |
| CCUGCCUAUGUCUAGGCCATT against AW212607 | inactive: 1.16 |
| GCUAGCACAGGGAAUUUAGTT against Rgs20 | inactive: -1.11 |
| GCCUGUCUCCUCAAUGCUUTT against LOC433873 | inactive: -0.298 |
| GGAUGGAGACCUCUCCUUUTT against Guca2a | inactive: -0.761 |
| GGAGAAUGGAAAGUAUGGGTT against D1Pas1 | inactive: -0.821 |
| GGUUGUGAGCUAACAAUGGTT against B430209F14Rik | inactive: -1.11 |
| GGUAUGCUCUCUGUUGACUTT against Olfr922 | inactive: -1.13 |
| GGAGAGUAUGGACAGUAUUTT against Pgc | inactive: -1.42 |
| GGGUUAGAACUGACACCCGTT against Elk4 | inactive: 0.248 |
| GGUUGUUUCCAGUAUUCUGTT against Apc2 | inactive: 0.257 |
| GCAGUAGGUGCCUUAUUGGTT against Rab11a | inactive: 0.0317 |
| GGUGAUGGUCCAGAUUAACTT against Prosc | inactive: 0.691 |
| GGAACUUGGUGCAAUCAUCTT against AI132321 | inactive: 1.24 |
| GACCGAGGUCAACAGAGUGTT against Slc6a20 | inactive: -1.24 |
| GGCACAGUAAUCUUUUUCUTT against C130086A10 | inactive: 0.197 |
| GGCUGUGAAAUCGGAUUUATT against Cacnb2 | inactive: -0.673 |

| Sequence | z-score |
| --- | --- |
| CGUGUAUGAGGCUAAGUUATT against Gpr68 | inactive: -0.494 |
| GGGUUAUUGAAUUAGUUCATT against Mybl1 | inactive: 0.687 |
| GCUAUAAGUUUCUGGGUGATT against Fzd2 | inactive: 1.23 |
| GGUAUUUGAAUUUCGUCCCTT against 2610312B22Rik | inactive: -0.182 |
| GCAUAAACUAACCACUUAGTT against Evi2b | inactive: -1.12 |
| GGGCAAACUCUAUAAUCAGTT against BC023105 | inactive: -1.15 |
| CGCCUAGCCUACUGAGAUUTT against 6330408A02Rik | inactive: -0.179 |
| GGGAAGAAACUGUGAUUUUTT against Cbfa2t3h | inactive: 0.583 |
| GGCUGAAAUAUGAAAUUGCTT against Pscd3 | inactive: 0.00525 |
| CGGAACUAUGAAAAGAAAUTT against Stk3 | inactive: -0.0974 |
| GGUUGGCAUGUUUGGUGUUTT against 6430596G11Rik | inactive: -0.488 |
| CCCUAGAUGGCCGAAAUAUTT against Dazap1 | inactive: -1.82 |
| GCAGAAGUCUAUCACCUUUTT against Olfr1441 | inactive: 1.57 |
| GGGAAUCUUGGCAUGAUGGTT against Olfr1030 | inactive: -0.0935 |
| GGCAAAAUUUGUGUGCAAATT against Mrc1 | inactive: 1.09 |
| GCGAUGGACUCAAAAAACUTT against Ehd3 | inactive: 0.71 |
| GGUAGAUGAUAAUUUCACUTT against 4930595M18Rik | inactive: 1.05 |
| GCUAGAUUACUCACAUCUATT against Ivl | inactive: -0.664 |
| GGAAUUCCAGACACCCAUCTT against 1110011K10Rik | inactive: 0.835 |
| GCAGUAUCUACAAGAGGAGTT against 4933413B09Rik | inactive: 0.792 |
| GCCGAAACAAUGUACAGAUTT against Rbpsuh | inactive: 0.14 |
| GGUACAGAGCAAUAAGCAUTT against D10Wsu93e | inactive: 0.0324 |
| GGAAAUGAAGGCAGCAAUGTT against Olfr1311 | inactive: 0.244 |
| GCCUUGUCUAUAGGACUGUTT against Grm6 | inactive: -1.11 |
| GCAACAAGUGUUGGACUCATT against Tob2 | inactive: -2.62 |
| CGCAGGUUUGAGUACAAGCTT against BC020188 | inactive: -0.296 |

| Sequence | z-score |
| --- | --- |
| GCUUCCGAAAUCUGCCAAATT against Ii | inactive: 1.61 |
| GGUCAUACUCUAAUCGGACTT against Ctss | inactive: -1.35 |
| GGACAUGCAAGACAUGGAUTT against 3200002M19Rik | inactive: -0.223 |
| GCCCACGAGCCUCAUGGACTT against Sts | inactive: 0.549 |
| GCAAACACUUGAAUGUUCATT against Cacnb4 | inactive: 0.0867 |
| GCAUCUGUGUAGAAGUGGATT against Thrsp | inactive: 0.473 |
| GCUAUGAGCUAACAAGUCUTT against 5430438H03Rik | inactive: 0.683 |
| GGAGAAGAAAACAUCAAGUTT against Hrh3 | inactive: 0.663 |
| GGGAAAUCCUUUCUCAGUATT against AI313915 | inactive: -1.12 |
| GGCAGUGUUUGGCAAAUAUTT against Rbmx | inactive: 1.75 |
| CCUGUGAAUCACCCAAUCATT against C030018G13Rik | inactive: -0.365 |
| CCUUUGGAAACAACCACUUTT against Ugt1a6 | inactive: -0.338 |
| GCCCAGUACAACCCUCCUATT against E330023O18 | inactive: -1.09 |
| GGGUUGUAUGGCUCAAAUATT against Olfr728 | inactive: 0.247 |
| CCUUAUGUGCCCUUUCAUCTT against LOC245128 | inactive: 0.264 |
| GGACGUGGUGUAAAAUAGCTT against Cdkn2b | inactive: 0.389 |
| GGCCAUCUAAAAAUAGUAATT against A330015D16Rik | inactive: -0.42 |
| GGACAAAGAAAAAGAUUCCTT against Stxbp6 | inactive: 0.115 |
| GGUCUUCUGGAGUUUGUGGTT against Glrx1 | inactive: 1.84 |
| GGACUGAUGCAUUCUUUGCTT against Rg9mtd2 | inactive: -1.07 |
| GGUCCCUGCUUUGAUUCGATT against Olfr90 | inactive: 1.72 |
| GGAAACAUGACAGCUGCUCTT against Arpc5 | inactive: -0.06 |
| GGAAGGAGUUCGAAGUCAUTT against Ralgds | inactive: 2.77 |
| GGGCGAAGGGAUUACUAUUTT against Rhpn1 | inactive: -0.094 |
| GAACUUUAUCACCUGCUUCTT against C030006K11Rik | inactive: 0.528 |
| GGUGAAUUUGAUUGAUGAGTT against Ccnl2 | inactive: 0.657 |

An excerpt of these results, tab-delimited:
Sequence	z-score
CCUUUGGAAACAACCACUUTT against Ugt1a6	inactive: -0.338
GGUGAAUUUGAUUGAUGAGTT against Ccnl2	inactive: 0.657

(listing goes on)

| Sequence | z-score |
| --- | --- |
| CGCACUCUUACUCACCAGATT against 2810439K08Rik | inactive: -0.418 |
| GGCUCAAGGACAGAUGAUGTT against Tra1 | inactive: -0.94 |
| GGUUAUCCUUCCCAGAAUUTT against 1110059E24Rik | inactive: 0.0221 |
| GGUCAUUUAUGAGAGGGCUTT against Thap11 | inactive: -1.48 |
| GGAAGCUGUUUCAAACAAATT against C730031G17 | inactive: -1.83 |
| GGAGUAUGCCCAUUCCAUCTT against Grm8 | inactive: 0.144 |
| GCGACUACUUAGACACUUUTT against 4732481H14Rik | inactive: -1.94 |
| GGUACAGCUUAUGGAUUAATT against Pdgfra | inactive: 1.38 |
| GGAUUUGUGCCCUCCUUUCTT against Ucp3 | inactive: 0.541 |
| GGGAACUUCCUUGAGAAGATT against 4933434I20Rik | inactive: -0.363 |
| GCAGCUCCAUACCAAUUCCTT against 4921501E09Rik | inactive: 0.683 |
| CCCAAGCAAUUACAGUACUTT against Olfr42 | inactive: 0.285 |
| GGCUGUUCAAAGUGACCCUTT against Hbp1 | inactive: -0.48 |
| CCUACUGUUUGAGUCCCAGTT against 2610014H22Rik | inactive: 1.96 |
| GGGUUUCUGCAUUGACAUUTT against Grin2d | inactive: -0.221 |
| GCCAGAUCUUUAUAUCCCGTT against Gdi3 | inactive: -0.413 |
| GCCUUUAUAGUCUUAAGCATT against 2810475A17Rik | inactive: -1.55 |
| CCUUCAGAUAUCUUAGAAATT against D5Wsu178e | inactive: -0.426 |
| GGAGUUCACGGAUCUUGAGTT against BC024868 | inactive: -2.15 |
| GGCUGUUCGUACUAUAGCUTT against Gpr119 | inactive: -0.649 |
| GCAUAAUGGAUGGAAAGUCTT against 4930485D02Rik | inactive: -0.211 |
| GCAACAAAUUUGAAUCAGATT against Chic2 | inactive: 0.349 |
| GGUAAAUUUGACUACCUGGTT against Fbxo36 | inactive: 0.756 |
| CCGACACAAGAUGCUCAGUTT against Tmem9 | inactive: -0.249 |
| GGAAGACAUUCACGAUUGUTT against Depdc6 | inactive: -1.94 |

An excerpt of these results, tab-delimited.
Sequence	z-score
CGCACUCUUACUCACCAGATT against 2810439K08Rik	inactive: -0.418
GGCUCAAGGACAGAUGAUGTT against Tra1	inactive: -0.94
GGUUAUCCUUCCCAGAAUUTT against 1110059E24Rik	inactive: 0.0221
GGUCAUUUAUGAGAGGGCUTT against Thap11	inactive: -1.48
GGAAGCUGUUUCAAACAAATT against C730031G17	inactive: -1.83
GGAGUAUGCCCAUUCCAUCTT against Grm8	inactive: 0.144
GCGACUACUUAGACACUUUTT against 4732481H14Rik	inactive: -1.94
GGUACAGCUUAUGGAUUAATT against Pdgfra	inactive: 1.38
GGAUUUGUGCCCUCCUUUCTT against Ucp3	inactive: 0.541
GGGAACUUCCUUGAGAAGATT against 4933434I20Rik	inactive: -0.363
GCAGCUCCAUACCAAUUCCTT against 4921501E09Rik	inactive: 0.683
CCCAAGCAAUUACAGUACUTT against Olfr42	inactive: 0.285
GGCUGUUCAAAGUGACCCUTT against Hbp1	inactive: -0.48
CCUACUGUUUGAGUCCCAGTT against 2610014H22Rik	inactive: 1.96
GGGUUUCUGCAUUGACAUUTT against Grin2d	inactive: -0.221
GCCAGAUCUUUAUAUCCCGTT against Gdi3	inactive: -0.413
GCCUUUAUAGUCUUAAGCATT against 2810475A17Rik	inactive: -1.55
CCUUCAGAUAUCUUAGAAATT against D5Wsu178e	inactive: -0.426
GGAGUUCACGGAUCUUGAGTT against BC024868	inactive: -2.15
GGCUGUUCGUACUAUAGCUTT against Gpr119	inactive: -0.649
GCAUAAUGGAUGGAAAGUCTT against 4930485D02Rik	inactive: -0.211
GCAACAAAUUUGAAUCAGATT against Chic2	inactive: 0.349
GGUAAAUUUGACUACCUGGTT against Fbxo36	inactive: 0.756
CCGACACAAGAUGCUCAGUTT against Tmem9	inactive: -0.249
GGAAGACAUUCACGAUUGUTT against Depdc6	inactive: -1.94
